Assay results published in publication PMC4605297.

Target: T1, SsOGT wild type (Sulfolobus solfataricus) (UniProt Q97VW7)
T1 sequence: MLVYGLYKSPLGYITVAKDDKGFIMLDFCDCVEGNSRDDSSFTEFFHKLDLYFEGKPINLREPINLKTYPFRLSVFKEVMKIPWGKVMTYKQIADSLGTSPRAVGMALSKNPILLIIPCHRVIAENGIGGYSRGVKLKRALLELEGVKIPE
Assay: EMSA
Conditions: EMSA: 0-25 uM protein, 0.2 uM probe, 37 C 10 min, 10 ul, buffer as ref. 17, 8% native PAGE in 1X TBE pH 8.3; recombinant protein; residues 1-151; protein details: N-terminal His (pQE31); label: TAMRA, 5' of A+

## GCAACAACGTTGCGCAAACTATTAACTGGCGAACTACTTA (double strand) [ds A+/D- (A+/A- in Fig. 3 legend)]
  binding result: binds
